{"sequences": {"note": "Protein sequences, listed by entry. Tags and fused reporters are not part of them.", "UniProt P11142": "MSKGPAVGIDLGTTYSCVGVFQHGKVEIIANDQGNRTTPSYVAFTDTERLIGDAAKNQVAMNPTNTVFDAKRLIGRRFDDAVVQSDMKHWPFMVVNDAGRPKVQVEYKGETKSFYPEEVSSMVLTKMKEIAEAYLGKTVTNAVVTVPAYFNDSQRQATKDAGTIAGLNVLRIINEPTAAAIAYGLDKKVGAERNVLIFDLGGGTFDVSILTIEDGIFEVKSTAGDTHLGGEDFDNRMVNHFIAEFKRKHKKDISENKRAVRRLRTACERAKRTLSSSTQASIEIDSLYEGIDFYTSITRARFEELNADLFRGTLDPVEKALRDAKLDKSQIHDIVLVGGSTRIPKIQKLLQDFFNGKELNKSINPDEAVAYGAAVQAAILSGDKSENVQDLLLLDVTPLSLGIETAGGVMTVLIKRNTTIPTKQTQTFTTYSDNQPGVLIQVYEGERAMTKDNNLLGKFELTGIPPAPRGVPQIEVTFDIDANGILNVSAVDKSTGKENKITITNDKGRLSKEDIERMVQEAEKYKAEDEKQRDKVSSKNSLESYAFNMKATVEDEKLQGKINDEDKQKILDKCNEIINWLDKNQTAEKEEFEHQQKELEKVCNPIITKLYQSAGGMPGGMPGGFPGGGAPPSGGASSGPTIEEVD"}, "source": "paper PMC12375585", "molecular_target": "T1, Flag-tagged full-length GPATCH3 (G-Patch Domain Containing 3) (human) (UniProt Q96I76)", "T1 sequence": "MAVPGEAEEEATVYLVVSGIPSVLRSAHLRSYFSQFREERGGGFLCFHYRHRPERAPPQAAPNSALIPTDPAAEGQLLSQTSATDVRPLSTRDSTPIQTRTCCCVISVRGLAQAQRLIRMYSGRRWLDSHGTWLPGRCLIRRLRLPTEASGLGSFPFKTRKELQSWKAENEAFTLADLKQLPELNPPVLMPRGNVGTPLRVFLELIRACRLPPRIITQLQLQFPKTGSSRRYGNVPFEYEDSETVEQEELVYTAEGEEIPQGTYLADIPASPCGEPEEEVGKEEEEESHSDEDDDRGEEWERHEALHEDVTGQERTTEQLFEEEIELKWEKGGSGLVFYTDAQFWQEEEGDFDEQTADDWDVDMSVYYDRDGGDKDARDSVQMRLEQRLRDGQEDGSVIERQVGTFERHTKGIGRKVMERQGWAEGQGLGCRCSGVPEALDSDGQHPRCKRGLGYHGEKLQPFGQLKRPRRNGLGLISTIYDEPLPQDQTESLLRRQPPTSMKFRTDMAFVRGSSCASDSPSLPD", "test": "co-IP; Flag-tagged GPATCH3 (full length or truncation mutants) expressed in HEK293T; lysate (25 mM Tris-HCl pH 7.4, 150 mM NaCl, 1% NP-40, 1 mM EDTA, 1 mM EGTA) on anti-Flag M2 magnetic beads, 4°C, 4 h; eluted with 3× Flag peptide; immunoblotting", "note": "These are yes or no findings as the source states them, for the method shown. In cells and extracts the contact can be indirect. Some entries that bind do so weakly or less than the wild type. Where a sequence is shown, tags or fusion partners need not be part of it."}
{"substance": "HSPA8, endogenous (from UniProt P11142 1-646)", "values": [{"measurement": "binding", "result": "binds"}]}
